Reference: PubChem BioAssay AID328 (DTP/NCI, 2004)
The list shows only some results of the screen, not a fair sample: it is rich in T/C values a quarter to a half above the control, in often repeated tests (any T/C) and in doses without a T/C. Other doses and runs of a compound stand elsewhere. T/C is the treated group as % of the vehicle group. Some entries give survivors of the animals treated and no T/C: the source holds a T/C of zero for them, seemingly a mark for toxic or unscored doses. Some doses without a T/C left all or most animals alive at the check, yet need not have been tolerated: survival well below the control is almost never listed, so the zero probably covers shortened survival too. Survivors were counted at the toxicity check, usually on the fifth day, unless a day is given; later deaths do not show. Schedules are NCI's codes, taken here to give the interval after Q, in days (D) or hours (H), and the number of doses after X. Where survival is the endpoint, the PubChem record calls one and a half times the control and up active, and a quarter to a half above the control has no call in these data; cut-offs in other NCI protocols can differ. Additions like (4×) stand for listed records that agree. Some T/C values carry the count of animals alive at the toxicity check (mostly the fifth day); without a count, all were alive then.

Test system: BDF1 mice, P388 leukemia ip, median survival T/C
Test: NCI In Vivo Anticancer Drug Screen. Data for tumor model P388 Leukemia (intraperitoneal) in B6D2F1 (BDF1) mice
Conditions: T/C endpoint: median survival time, higher T/C = longer survival
Summary of the method: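 Vehicle-dosed animals serve as the reference; survival of compound-dosed, tumour-implanted mice is divided by it.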

[1] = dose: 400.0 mg/kg/injection, schedule: Q01DX009 (ip), vehicle: saline
[2] = dose: 400.0 mg/kg/injection, schedule: Q04DX003 (ip), vehicle: saline with Tween-80
[3] = dose: 200.0 mg/kg/injection, schedule: Q04DX003 (ip), vehicle: saline with Tween-80
[4] = dose: 200.0 mg/kg/injection, schedule: Q01DX009 (ip), vehicle: saline with Tween-80
[5] = dose: 100.0 mg/kg/injection, schedule: Q01DX009 (ip), vehicle: saline with Tween-80
[6] = dose: 50.0 mg/kg/injection, schedule: Q01DX009 (ip), vehicle: saline with Tween-80
[7] = dose: 100.0 mg/kg/injection, schedule: Q04DX003 (ip), vehicle: saline with Tween-80

In the case of `COc1ccc2c(C)[n+]3ccc4cc(OC)c(OC)cc4c3cc2c1` (tested in a mixture with another compound), the T/C (dose: 50.0 mg/kg/injection, schedule: Q01DX009 (ip), vehicle: saline) is reported as 140 % of control, the T/C (dose: 100.0 mg/kg/injection, schedule: Q01DX009 (ip), vehicle: saline) is reported as 145 % of control and the T/C (dose: 100.0 mg/kg/injection, schedule: Q04DX003 (ip), vehicle: saline, evaluated on day 30) is reported as 145 % of control. The T/C (dose: 100.0 mg/kg/injection, schedule: Q04DX003 (ip), vehicle: saline, evaluated on day 34) was 145 % of control, the survivor count (dose: 112.0 mg/kg/injection, schedule: Q01DX009 (ip), vehicle: saline) was 6 of 6 and the survivor count (dose: 200.0 mg/kg/injection, schedule: Q01DX009 (ip), vehicle: saline) was 5 of 6. The survivor count (dose: 200.0 mg/kg/injection, schedule: Q04DX003 (ip), vehicle: saline) was 4 of 6, the survivor count (dose: 300.0 mg/kg/injection, schedule: Q04DX003 (ip), vehicle: saline) was 2 of 6 and the survivor count [1] was 0 of 6.
With `[CH3][Sn]([CH3])([CH3])[O]C(=O)CCl` the survivor count (dose: 3.0 mg/kg/injection, schedule: Q01DX009 (ip), vehicle: saline) was 0 of 6.
`Oc1cc(OCCCc2ccc(F)cc2)cc2ccc3ccccc3c12` was tested, and the survivor count [2] was 1 of 6.
`NC(=O)NC1OC(COC(=O)c2ccccc2)C(OC(=O)c2ccccc2)C1OC(=O)c1ccccc1` (stereo not drawn) was tested, and the survivor count [3] was 6 of 6.
In the case of `C1=C(c2ccccc2)OC(c2ccccc2)=C(c2ccccc2)[P+]1(c1ccccc1)c1ccccc1`, the survivor count (dose: 50.0 mg/kg/injection, schedule: Q01DX005 (ip), vehicle: saline with Tween-80) is reported as 0 of 5, the survivor count (dose: 100.0 mg/kg/injection, schedule: Q01DX005 (ip), vehicle: saline with Tween-80) is reported as 0 of 5 and the survivor count (dose: 200.0 mg/kg/injection, schedule: Q01DX005 (ip), vehicle: saline with Tween-80) is reported as 0 of 5.
`N#Cc1cnc(=S)n(-c2cc(C(F)(F)F)cc(C(F)(F)F)c2)c1N` was tested, and the survivor count [4] was 0 of 6.
In the case of `CC(=O)NC1C([Se][As](C)C)OC(COC(C)=O)C(OC(C)=O)C1OC(C)=O` (stereo not drawn), the T/C (dose: 12.5 mg/kg/injection, schedule: Q01DX009 (ip), vehicle: saline with Tween-80) is reported as 129 % of control.
With `COC(=O)c1c(Cl)c(Cl)c(Cl)c(Cl)c1C(=O)O` the survivor count [5] was 3 of 6 and the survivor count [4] was 2 of 6.
`CCCCCCCCCCCCCCOc1ccc(Cc2ccccc2)cc1` was tested, and the survivor count (dose: 400.0 mg/kg/injection, schedule: Q04DX003 (ip), vehicle: Klucel (hydroxypropylcellulose) (HPC)) was 6 of 6.
With `CCN1CCC2(CC1)COCc1ccccc12` the survivor count (dose: 200.0 mg/kg/injection, schedule: Q04DX002 (ip), vehicle: saline with Tween-80) was 0 of 6.
In the case of `Nc1nc(=S)c2ncn(C3OC(COC(=O)c4ccccc4)C(OC(=O)c4ccccc4)C3OC(=O)c3ccccc3)c2[nH]1` (stereo not drawn), the T/C (dose: 8.8 mg/kg/injection, schedule: Q01DX009 (ip), vehicle: saline with Tween-80) is reported as 125 % of control, the T/C (dose: 20.0 mg/kg/injection, schedule: Q01DX009 (ip), vehicle: saline with Tween-80) is reported as 137 % of control and the T/C (dose: 22.0 mg/kg/injection, schedule: Q01DX009 (ip), vehicle: saline with Tween-80) is reported as 140 % of control. The T/C (dose: 30.0 mg/kg/injection, schedule: Q01DX009 (ip), vehicle: saline with Tween-80) was 137 % of control, the T/C [6] was 136 % of control and the T/C (dose: 66.0 mg/kg/injection, schedule: Q04DX003 (ip), vehicle: saline) was 131 % of control. For the same compound, the T/C [7] was 136 % of control, the T/C (dose: 150.0 mg/kg/injection, schedule: Q04DX003 (ip), vehicle: saline) was 136 % of control [5 of 6 alive] and the T/C [3] was 127 % of control. The survivor count [2] was 6 of 6.
For `COc1cccc2c1C(=O)c1c(O)c3c(c(O)c1C2=O)C[C@@](O)(C(=O)O)C[C@@H]3OC1CC(N)C(O)C(C)O1` (stereo partly drawn), the T/C (dose: 6.25 mg/kg/injection, schedule: Q01DX009 (ip), vehicle: water) was 142 % of control.
For `N#CC1(Nc2ccccc2)CCCCC1`, the survivor count [6] was 0 of 6, the survivor count [5] was 0 of 6 and the survivor count [3] was 0 of 6.
For `CCOC(=N)c1cn(C2OC(CO)C(O)C2O)c2ncnc(N)c12` (stereo not drawn), the survivor count (dose: 1.0 mg/kg/injection, schedule: Q01DX009 (ip), vehicle: saline with Tween-80) was 6 of 6, the survivor count (dose: 2.0 mg/kg/injection, schedule: Q01DX009 (ip), vehicle: saline with Tween-80) was 6 of 6 and the survivor count (dose: 4.0 mg/kg/injection, schedule: Q01DX009 (ip), vehicle: saline with Tween-80) was 6 of 6. The T/C (dose: 4.0 mg/kg/injection, schedule: Q04DX003 (ip), vehicle: saline with Tween-80) was 140 % of control, the T/C (dose: 12.0 micrograms/kg/injection, schedule: Q01DX009 (ip), vehicle: saline) was 132 % of control and the T/C (dose: 18.0 micrograms/kg/injection, schedule: Q01DX009 (ip), vehicle: saline) was 135 % of control (2×). For the same compound, the T/C (dose: 30.0 micrograms/kg/injection, schedule: Q01DX009 (ip), vehicle: saline with Tween-80) was 129 % of control, the T/C (dose: 44.0 micrograms/kg/injection, schedule: Q01DX009 (ip), vehicle: saline) was 128 % of control and the T/C (dose: 60.0 micrograms/kg/injection, schedule: Q01DX009 (ip), vehicle: saline with Tween-80) was 129 % of control. For the same compound, the T/C (dose: 150.0 micrograms/kg/injection, schedule: Q01DX009 (ip), vehicle: saline) was 149 % of control.
For `Nc1ccc(CCc2ccc(Cl)cc2S(=O)(=O)F)c(Cl)c1`, the survivor count [1] was 4 of 6.
For `CCCCNC(C)(C)CSSSCC(C)(C)NCCCC`, the survivor count (dose: 12.5 mg/kg/injection, schedule: Q01DX009 (ip), vehicle: other) was 5 of 6, the T/C (dose: 25.0 mg/kg/injection, schedule: Q01DX009 (ip), vehicle: other) was 143 % of control and the survivor count (dose: 50.0 mg/kg/injection, schedule: Q01DX009 (ip), vehicle: other) was 5 of 6. The survivor count (dose: 100.0 mg/kg/injection, schedule: Q01DX009 (ip), vehicle: other) was 2 of 6.
For `Cc1noc(N)c1N`, the T/C (dose: 400.0 mg/kg/injection, schedule: Q01DX009 (ip), vehicle: water) was 130 % of control.
With `O=c1ccs[nH]1` the survivor count (dose: 50.0 mg/kg/injection, schedule: Q04DX003 (ip), vehicle: saline with Tween-80) was 4 of 6, the survivor count [7] was 0 of 6 and the survivor count [3] was 0 of 6. The survivor count [2] was 0 of 6.
In the case of `Cc1ccc(C2(C(=O)O)CCCCC2)cc1`, the survivor count (dose: 400.0 mg/kg/injection, schedule: Q01DX009 (ip), vehicle: Klucel (hydroxypropylcellulose) (HPC)) is reported as 5 of 6.
With `O=[N+]([O-])c1ccc(NCc2ccccc2)nc1` the T/C [4] was 125 % of control [5 of 6 alive].
For `c1ccc2c3ccn4cc5c(cc4c-3nc2c1)CCCC5`, the survivor count (dose: 75.0 mg/kg/injection, schedule: Q01DX010 (ip), vehicle: saline) was 1 of 6, the survivor count (dose: 150.0 mg/kg/injection, schedule: Q01DX010 (ip), vehicle: saline) was 0 of 6 and the survivor count (dose: 300.0 mg/kg/injection, schedule: Q01DX010 (ip), vehicle: saline) was 0 of 6.
For `CC(=O)[C@H]1CC[C@H]2[C@@H]3CCC4=CC(=O)[C@H](C)C[C@]4(C)[C@@]3(F)[C@@H](O)C[C@]12C`, the survivor count [4] was 4 of 6 and the survivor count (dose: 400.0 mg/kg/injection, schedule: Q01DX009 (ip), vehicle: saline with Tween-80) was 5 of 6.
For `CCOC(=O)C1C(=O)C(C(=O)Nc2ccccc2)C(=O)C(C(=O)OCC)C1c1ccc(O)cc1` (stereo not drawn), the survivor count [3] was 6 of 6.
